The structures appear in SMILES notation. This is one part of the list.

A short description of this assay: growth inhibition of WT strain, primary screen, mitochondrial fusion inhibitor project, WT and mutant strains, chemical genetic (AID 1362). Further: tested in S. cerevisiae. As to conditions: mitochondrial fusion phenotypic screen, at 10 µM.
As for `CN(C(=O)Cc1ccc(Cl)c(Cl)c1)[C@@H]1CCCC[C@H]1N1CCCC1`, the inhibition is 7.42%. For `CC(C)/C=N\N=C(\N)N[N+](=O)[O-]` the value was 2.89%; for `O=P1(Nc2ccccn2)COc2ccccc2OC1`, -24.1%; for `O=[N+]([O-])c1cc([N+](=O)[O-])c(-n2nnc3ccccc32)c([N+](=O)[O-])c1`, -3.09%.

Consider `Clc1n[nH]nc1-c1nn[nH][15n]1`, for which the inhibition was -6.27%. Consider `CCOC(=O)c1ccc(NP(C)(=O)Oc2ccc(OC)cc2)cc1` (stereo unspecified), for which the inhibition was -10.4%. As for `CCOP(C)(=S)SCC(=O)NC(C)C(=O)O` (stereo unspecified), the figure is -4.32%. Consider `CP(=O)(Nc1ccccn1)Oc1ccc(Cl)cc1` (stereo unspecified), for which the inhibition stood at 9.33%. As for `CCC(C)N(CC(C)C)C(=S)SC(NC(C)=O)C(Cl)(Cl)Cl` (stereo unspecified), the figure is 45.3%; as for `COP1(=S)c2c(C)nn(CCC#N)c2N=C(c2ccc(F)cc2)N1C` (stereo unspecified), 4.22%.

In the case of `Cc1cccc(C)c1OP(C)(=O)Nc1ccc(SC(F)(F)F)cc1` (stereo unspecified), the inhibition stood at 6.81%.

For `CP(=O)(Oc1ccccc1)OC(c1ccccc1)C(F)(F)F` (stereo unspecified), the inhibition is 5.3%.

With `CP(=O)(NC(=O)Nc1ccccc1)Oc1ccccc1` (stereo unspecified), the inhibition amounted to 7.58%. As for `O=C(COc1ccccc1)OC1CN2CCC1CC2` (stereo unspecified), the figure is 2.04%; as for `Cc1cc(C)cc(OP(C)(=O)Nc2ccc(SC(F)(F)F)cc2)c1` (stereo unspecified), -9.18%.

`CP(=S)(Nn1cnnc1)Oc1ccccc1` (stereo unspecified): the inhibition was -4.08%. On to `CP(=O)(Nc1ccccc1Br)Oc1ccccc1` (stereo unspecified), for which the inhibition came to 2.74%. Turning to `Cc1cc(SC(NC=O)C(Cl)(Cl)Cl)ncn1` (stereo unspecified), the inhibition is -3.2%. As for `O=P(Nc1ccccn1)(c1cccc2ccccc12)c1cccc2ccccc12`, the figure is 5.83%; as for `COc1ccccc1OP(C)(=O)Nc1ccccc1` (stereo unspecified), 4.17%; as for `Cc1cc(SC(NC(=O)c2ccccc2)C(Cl)(Cl)Cl)nc(C(C)C)n1` (stereo unspecified), 28.7%.

`COc1ccccc1OP(C)(=O)Nc1ccc(C)cc1` (stereo unspecified): the inhibition came to 5.37%. With `Cc1ccc(NP(C)(=O)Oc2ccccc2)c(C)c1` (stereo unspecified), the inhibition is 6.12%. As for `CCOC(=O)c1ccc(NP(C)(=O)Oc2ccccc2)cc1` (stereo unspecified), the figure is -23.8%; as for `ClCCSc1nnc(-c2cccnc2)o1`, 10.8%; as for `Cc1cc(C)cc(OP(C)(N)=O)c1` (stereo unspecified), 2.58%.

For the molecule `CC(C)NC(=O)NP(=O)(Oc1ccccc1)Oc1ccccc1`, the inhibition amounted to 4.41%.

Regarding `COc1ccccc1OP(C)(=O)Nc1cc(Cl)ccc1C` (stereo unspecified), the inhibition was -12.2%. As for `CCN(CC)C(=S)SC(NC=O)C(Cl)(Cl)Cl` (stereo unspecified), the figure is 10.6%; as for `COc1ccc(OP(C)(=O)Nc2cccc(F)c2)cc1` (stereo unspecified), 2.62%; as for `O=[N+]([O-])c1cc([N+](=O)[O-])c(-c2ccn[nH]2)s1`, 18.3%. As for `O=[N+]([O-])c1ccc2c(c1)C=Nc1ccccc1O2`, the figure is 63.1%; as for `Cc1ccc2nc3c(c(C)c2c1)CC(C(Cl)Cl)S3` (stereo unspecified), -3.04%; as for `CC(C)(C)c1ccc(OP(C)(=O)Nc2ccc(SC(F)(F)F)cc2)cc1` (stereo unspecified), 38.5%. As for `Cc1cccc(C)c1OP(C)(N)=O` (stereo unspecified), the figure is 11.6%; as for `COc1ccc(N/C(=N/P(=O)(N2CCOCC2)N2CCOCC2)N2CCOCC2)cc1`, 8.87%. `O=C(OC1CN2CCC1CC2)C12CC3CC(CC(C3)C1)C2` (stereo unspecified): the inhibition is -8.57%. As for `Cc1cc(=O)[nH]c(N[N+](=O)[O-])n1`, the figure is -25%. With `CCN(CC)CCCOC(=O)C(O)(c1ccccc1)c1ccccc1`, the inhibition was 3.4%. As to `Cc1c2c(nc3ccccc13)SC(C(Cl)Cl)C2` (stereo unspecified), the inhibition stood at 19.1%. For `COc1ccc2nc(NP(=O)(c3ccccc3)c3ccccc3)sc2c1` the value was 0.34%.

(Values after PubChem BioAssay AID1362 (SRMLSC, 2008).)
